Laboratory results reported in PubChem BioAssay AID1671190 (National Center for Advancing Translational Sciences (NCATS), 2021).
“And” between values parts separate entries of the source, which are not always exact repeats. Equal values may be shown once. Screen size: about 580,000 compounds; about 6,100 (1.1%) were called active. Inconclusive means that the source gave no clear call. Such entries were picked first, then a sample of the others. Calls follow the shape of the dose curve; as a rule, active = well fitted inhibition curve with a large enough effect; inconclusive = small, poorly fitted or top-dose-only effect, or another doubt; inactive = no such curve, though single readings can be large or run the other way. Potencies of inconclusive entries are doubtful fits and often do not repeat.
% is scaled to controls: 0 for no effect and ±100 for the full control effect; potency is read from the fitted curve at half-maximal effect.

Sequences of proteins named here, by UniProt entry; tags and fusion partners are left off.
UniProt P18054, whole entry, looked up: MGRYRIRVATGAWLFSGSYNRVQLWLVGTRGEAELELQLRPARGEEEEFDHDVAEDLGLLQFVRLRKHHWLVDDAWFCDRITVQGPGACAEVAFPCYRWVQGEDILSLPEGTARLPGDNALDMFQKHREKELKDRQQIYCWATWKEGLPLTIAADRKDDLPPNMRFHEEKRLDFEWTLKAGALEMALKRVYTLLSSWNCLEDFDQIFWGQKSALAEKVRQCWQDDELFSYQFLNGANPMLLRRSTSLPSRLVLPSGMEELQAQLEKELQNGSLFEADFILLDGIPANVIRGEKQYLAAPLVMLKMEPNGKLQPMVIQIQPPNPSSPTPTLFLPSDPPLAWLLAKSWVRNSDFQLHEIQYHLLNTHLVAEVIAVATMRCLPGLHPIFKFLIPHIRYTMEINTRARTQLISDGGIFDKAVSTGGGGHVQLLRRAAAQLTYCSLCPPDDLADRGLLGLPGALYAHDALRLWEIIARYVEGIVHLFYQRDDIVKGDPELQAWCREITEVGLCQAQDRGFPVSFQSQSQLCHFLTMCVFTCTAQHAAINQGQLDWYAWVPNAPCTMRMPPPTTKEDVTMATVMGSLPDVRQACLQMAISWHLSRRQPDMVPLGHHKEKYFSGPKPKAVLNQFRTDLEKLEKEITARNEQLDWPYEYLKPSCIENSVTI

These compounds were tested against Polyunsaturated fatty acid lipoxygenase ALOX12 (Homo sapiens) (UniProt P18054) (assay: Primary qHTS assay for inhibitors of human arachidonate 12S-lipoxygenase (ALOX12): Round 2). Conditions: purified 12hLO, xylenol orange hydroperoxide absorbance; activity change, negative = inhibition: at 108 µM (top of the series) unless noted.
Method in brief: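 Hydroperoxide product was detected by ferrous iron/xylenol orange as the 573 to 405 nm absorbance ratio. Arachidonic acid at 40 uM (final) was turned over for 30 min at room temperature by 150 nM human 12hLO, pH 7.0 Hepes buffer, after 15 min compound preincubation.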
In the case of `CCOc1ccccc1Nc1sc(C(=O)c2ccc(Cl)cc2)c(N)c1S(=O)(=O)c1ccccc1`, the “activity change, negative = inhibition” value is reported as inactive: -12.3%. In the case of `COc1cccc(NS(=O)(=O)c2cc3c(cc2C)N(C(C)=O)CCO3)c1`, the “activity change, negative = inhibition” value is reported as inactive: 22%. For `Cc1ccc(-c2cc(=O)c3cc(Cl)cc(Cl)c3o2)cc1`, the Potency was inconclusive: 2 µM [inhibitor, full curve, poor fit]. For `CC(C)NC(=O)c1cc(=O)[nH]c2ccc(S(=O)(=O)Nc3ccc(F)cc3)cc12`, the “activity change, negative = inhibition” value was inactive: 0.0438%. With `COc1ccc(C2/C=C\CN(C(=O)OCC3c4ccccc4-c4ccccc43)CC(=O)N2Cc2cccc(F)c2)cc1` (stereo not drawn) the Potency was inconclusive: 89.1 µM [inhibitor, single point]. `C/C(=N/NC(=O)c1cccs1)c1ccc(Cl)cc1` was tested, and the “activity change, negative = inhibition” value was inactive: -12.4%. In the case of `O=C(COc1ccc(Cl)cc1Cl)Nc1ccccn1`, the “activity change, negative = inhibition” value is reported as inactive: -10.5%. With `CC(=O)N1CCN(C(=O)c2cc(C3CC3)nc3ccccc23)CC1` the “activity change, negative = inhibition” value was inactive: 19.4%. With `COc1ccccc1-c1noc2c1C(=O)N(Cc1cn(Cc3ccccc3)nn1)CC2` the Potency was inconclusive: 35.5 µM [inhibitor, single point]. In the case of `COc1cccc(NC(=O)NC[C@H]2O[C@@H](CC(=O)N3CCc4ccccc43)[C@H](O)[C@@H]2O)c1`, the Potency is reported as inconclusive: 100 µM [inhibitor, partial curve, poor fit]. In the case of `CN1CCN(C(C(=O)O)c2cn(CCC(=O)O)c3ccc(Br)cc23)CC1` (stereo not drawn), the Potency is reported as inconclusive: 44.7 µM [inhibitor, single point]. `Cc1nc2ccccc2nc1SC(C)C(=O)NCC(C)C` (stereo not drawn) was tested, and the Potency was inconclusive: 112 µM [inhibitor, single point]. In the case of `Cc1c(Cl)cccc1NC(=O)Cn1c(CCC(=O)O)ccc1-c1ccc(Cl)cc1`, the Potency is reported as inconclusive: 5.01 µM [inhibitor, full curve]. In the case of `Cc1ccc(NC(=S)NNC(=O)C(c2ccccc2)c2ccccc2)c(C)c1`, the Potency is reported as inconclusive: 44.7 µM [inhibitor, partial curve, poor fit]. `O=C(Nc1ncc(C(F)(F)F)cc1Cl)C1COc2ccccc2O1` (stereo not drawn) was tested, and the Potency was inconclusive: 3.98 µM [inhibitor, full curve, poor fit]. With `Cc1nc(C2CCCCN2C(=O)c2ccccc2F)n[nH]1` (stereo not drawn) the Potency was inconclusive: 100 µM [inhibitor, single point]. With `CCN(CC)C1Oc2cc3c(cc2C(c2cccc(OC)c2O)C1C)OCO3` (stereo not drawn) the Potency was inconclusive: 44.7 µM [inhibitor, partial curve, poor fit]. For `CC(O)CNS(=O)(=O)c1cc(C(=O)O)ccc1Br` (stereo not drawn), the Potency was inconclusive: 4.47 µM [inhibitor, full curve, poor fit]. `O=C(CCN1CCCCO1)N1CCCC(CCc2ccc(F)c(F)c2)C1` (stereo not drawn) was tested, and the “activity change, negative = inhibition” value was inactive: 18.2%. With `COc1ccc(CCNC(=O)c2ccc3c(=O)n(-c4ccccc4)c(=O)[nH]c3c2)cc1OC` the “activity change, negative = inhibition” value was inactive: 1.24%. For `O=C(NCc1ccccc1)c1cc2cc(Br)ccc2[nH]1`, the Potency was inconclusive: 28.2 µM [inhibitor, partial curve, poor fit]. In the case of `O=C(Nc1ccc2ccccc2c1)C(Nc1ccccc1)c1ccccc1F` (stereo not drawn), the Potency is reported as inconclusive: 100 µM [inhibitor, single point]. In the case of `CC(=O)Nc1cc(-c2ccc(CO)cc2)cn2c(-c3ccc(F)c(Cl)c3)cnc12`, the Potency is reported as active: 35.5 µM. `Cc1cc(C2CCCN2Cc2coc(-c3ccc(F)cc3)n2)on1` (stereo not drawn) was tested, and the “activity change, negative = inhibition” value was inactive: -7.86%. For `COc1ccc(C(=O)NC(=S)NCc2ccccc2)cc1OC`, the Potency was active: 15.8 µM. For `Cc1cccc(C(=O)NNc2ncnc3c2cnn3-c2ccc(C)c(Cl)c2)c1`, the Potency was inconclusive: 50.1 µM [inhibitor, partial curve, poor fit]. For `CC(C)CCN(C)c1ccc(/C=N/n2cnnc2)cc1`, the Potency was inconclusive: 28.2 µM [inhibitor, partial curve, poor fit]. For `Cc1ccc(NC(=O)c2ccc(Cn3ccn4nc5c(c4c3=O)CCCC5)cc2)cc1`, the Potency was inconclusive: 56.2 µM [inhibitor, partial curve]. In the case of `Cc1ncsc1CCC(=O)N1CCCC(c2nc(-c3ccncc3)ncc2-c2ccccc2)C1` (stereo not drawn), the “activity change, negative = inhibition” value is reported as inactive: -16.2%. In the case of `COc1ccc(OCCn2nnc3sc4c(c3c2=O)CCCC4)cc1`, the “activity change, negative = inhibition” value is reported as inactive: -26.4%. With `Cc1cccc(N2Cc3c(NC4CCCC4)ncnc3N(C)CC2=O)c1` the Potency was inconclusive: 79.4 µM [inhibitor, single point]. For `N#CC(C#N)=C(N)/C(C#N)=C/c1ccc2[nH]ccc2c1`, the Potency was inconclusive: 50.1 µM [inhibitor, partial curve, poor fit] and inconclusive: 126 µM [inhibitor, partial curve, poor fit]. In the case of `Cc1c(C(=O)N2CCCCCC2)c(S(=O)(=O)N2c3ccccc3CC2C)c(C)n1C` (stereo not drawn), the “activity change, negative = inhibition” value is reported as inactive: -2.62%. `Cc1ccc2nc3c(c(Nc4cccc(O)c4)c2c1)CCC3` was tested, and the Potency was inconclusive: 31.6 µM [inhibitor, partial curve, poor fit]. In the case of `CC(=O)c1cccc(OCc2cc(C(=O)N(C)CCc3ccccn3)no2)c1`, the Potency is reported as inconclusive: 44.7 µM [inhibitor, partial curve, poor fit]. `O=C(CCSc1nc(-c2ccc3c(c2)OCO3)cc(C(F)(F)F)n1)NCc1ccco1` was tested, and the Potency was inconclusive: 79.4 µM [inhibitor, single point]. With `Cc1cc(NCCc2c[nH]c3ccccc23)ccc1Oc1cccnc1` the Potency was inconclusive: 50.1 µM [inhibitor, partial curve, poor fit]. For `COC(=O)c1cc2sccc2n1CC(=O)Nc1cc(Cl)ccc1OC`, the “activity change, negative = inhibition” value was inactive: -22.8%. In the case of `COc1ccc2[nH]c(C)c(CCNC(=O)c3cc4ccccc4oc3=O)c2c1`, the Potency is reported as inconclusive: 31.6 µM [inhibitor, partial curve, poor fit]. In the case of `Cc1ccc(S(=O)(=O)C(CNC(=O)C(=O)NCc2ccc(Cl)cc2)c2ccco2)cc1` (stereo not drawn), the Potency is reported as inconclusive: 126 µM [inhibitor, partial curve, poor fit]. For `Cc1cc(=O)n(CC(=O)Nc2ccccc2F)c(-c2ccccc2)n1`, the “activity change, negative = inhibition” value was inactive: 5.2%. For `CCn1c(Cn2nnc(-c3ccccc3C)n2)nc2cc(S(=O)(=O)N3CCOCC3)ccc21`, the Potency was inconclusive: 39.8 µM [inhibitor, single point]. In the case of `Fc1ccccc1-c1cc2ncccc2cn1`, the Potency is reported as inconclusive: 0.891 µM [inhibitor, full curve, poor fit].
